Results published in patent publication US10457947B2, “Targeting of human glucocorticoid receptor beta in cancer” (The University of Toledo, priority 2016, dated 2019).
At least one structure is not confirmed: it was looked up by name or label, or the drawing left a doubt.

Assays:
[1] = test system: human GRβ mRNA; assay: GRβ mRNA expression by Real-Time PCR in T24 cells; format: cell-based; details: 100 nM dexamethasone, 2 hours, hormone-free serum
Description: The human uroepithelial carcinoma cell lines UMUC-3 and T24 (ATCC) were routinely cultured and maintained in Minimum Essential Medium (MEM) containing 10% fetal bovine serum (FBS) with 1% antibiotic-antimycotic. Cells were maintained at 37° C. and 5% CO2. Media was changed to MEM containing 10% Dialyzed-FBS with 1% antibiotic antimycotic 24 hours before hormone treatments.
A peptide nucleic acid (PNA) (Sweet-P) conjugated to a cell penetrating peptide (CPP) targeting the miR144 binding site in the 3′UTR of the human GRβ was designed using the PANAGENE® website (www.panagene.com). The Sweet-P targeting sequence was: (TGCCATACACAGTAT) [SEQ ID NO:1]. The Sweet-P sequence targeted the miR144 binding site in the 3′ UTR of human GRβ. (FIG. 7.) All PNAs were attached to an O-linker and a modified tat protein (VQRKRQKLMP) [SEQ ID NO:2] for delivery into the cell. Treatment with Sweet-P was performed for 48 hrs before the cells were analyzed.

[2] = test system: T24 bladder cancer cells; assay: Scratch (wounding) migration assay in T24 cells; format: cell-based, human; details: 100 nM dexamethasone 30 minutes prior to wounding
Description: Cells were seeded on a 6-well plate and grown for 24 hours until a monolayer of 90% confluent cells was obtained. A scratch wound in the cell monolayer was introduced using a sterile pipette tip. Images were taken at the time of wounding, and every 5 hours thereafter. Migration was measured as the fold change of the width of the wound remaining. To determine miRNA and mRNA expression during the scratch (wounding assay), total RNA was collected using the miRNeasy® Mini Kit (Qiagen) (described above) at 0 and 3 hours after the migration.

[3] = test system: UMUC-3 bladder cancer cells; assay: Scratch (wounding) migration assay in UMUC-3 cells; format: cell-based, human; details: 100 nM dexamethasone 30 minutes prior to wounding
[4] = test system: T24 cells; assay: miRNA expression by Real-Time PCR in T24 cells; format: cell-based, human; details: 100 nM dexamethasone, 2 hours
Description: FIGS. 8A-8B: […] ANOVA p<0.001; Bonferoni comparisons ***, […]=6). […] Total RNA was extracted from cell cultures using the miRNeasy® Mini Kit (Qiagen). […] The miScript Primer Assay® primers were purchased from Qiagen. Normalization was performed in separate reactions with primers to Hs_RNU6-2_11, At_U19_1, and Hs_SNORD61_11. The cloning vector pCMV-MIR containing the miR144 sequence was purchased from Origene. Cells were seeded on a 6-well plate, and transient transfection of the plasmid was completed as described above. After 48 hours-post transfection, RNA was harvested.

[5] = test system: UMUC-3 cells; assay: miRNA expression by Real-Time PCR in UMUC-3 cells; format: cell-based, human; details: 100 nM dexamethasone, 2 hours
Description: FIGS. 8A-8B: The effect of dexamethasone treatment on cell migration and miRNA expression in UMUC-3 and T24 bladder cancer cells. Migration was measured in the UMUC-3 and T24 cells that were treated with either vehicle or 100 nM dexamethasone for 30 minutes prior to wounding, and is presented as the fold-change in the wound width remaining (FIG. 8A). Images of the migration assay at […] post wounding are shown, with wound edges marked at T0 (black solid line) and T15 (white dashed line). ANOVA p<0.001; Bonferoni comparisons ***, p<0.0001 (versus Vehicle) (±S.E.; n=6). Total RNA was extracted from the UMUC3 and T24 cells after treating with either vehicle, 100 nM dexamethasone, or 100 nM Insulin in dialyzed media for 2 hours before harvesting, and miRNA expression was measured by Real-Time PCR (FIG. 8B). *, p<0.05; (Dex versus Veh); $, p<0.05; (Ins versus Veh); ##, p<0.01; ##, p<0.001; (T24 versus UMUC3) (±S.E.; n=6).
Total RNA was extracted from cell cultures using the miRNeasy® Mini Kit (Qiagen). Total RNA was read on a NanoDrop 2000® spectrophotometer (Thermo Fisher Scientific, Wilmington, Del.) and cDNA was synthesized using the miScript RT Kit (Qiagen). […] The miScript Primer Assay® primers were purchased from Qiagen. Normalization was performed in separate reactions with primers to Hs_RNU6-2_11, At_U19_1, and Hs_SNORD61_11.

## C[C@@H]1C[C@H]2[C@@H]3CCC4=CC(=O)C=C[C@]4(C)[C@@]3(F)[C@@H](O)C[C@]2(C)[C@@]1(O)C(=O)CO [Dex, dexamethasone]
[1]
  GRβ mRNA expression: did not change
[2]
  migration (wound width remaining): significantly (ANOVA: p<0.001) decreased
[3]
  migration (wound width remaining): no affect
[4]
  expression of miR144, miR-181a, and miR-181c: decreased
[5]
  expression of miR144, miR-181a, and miR-181c: not in the UMUC-3 cells
